Experimental data published in PubChem BioAssay AID2685 (National Center for Advancing Translational Sciences (NCATS), 2010).
The list shows a part of the results. Further columns of the screen follow, without active or inactive calls. Compounds called inactive in the main read-out are mostly missing here. Words in brackets tell the shape of the fitted curve; partial curves, single points and poor fits give uncertain potencies.

Experiment: qHTS Assay for Lipid Storage Modulators in Drosophila S3 Cells;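 as to cell number change: cells counted by Cell Tracker Red CMTPX staining in the red channel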
Settings: BODIPY lipid droplet fluorescence, 18-24 h; for cell number change: measured here: cell count max response, cells fed with added oleic acid
In short: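 Drosophila S3 cells loaded with oleic acid (400 uM, as added) and compounds at several concentrations; lipid droplets imaged by 488-nm laser-scanning cytometry, 500–530 nm intensity and object ratio to cell channel. Percent activity normalized to 20 uM Triacsin C.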

[1] = measured here: lipid fluorescence (Fed channel) AC50, cells fed with added oleic acid
[2] = measured here: cell number channel AC50, cells fed with added oleic acid

Row | SMILES | cell number change | AC50 [1] | AC50 [2]
1 | COc1ccccc1N(C)S(=O)(=O)c1ccc(C(=O)NC2CCCCC2)cc1 | -11.5% | 0.0206 µM [falling, full curve, poor fit] | 
2 | COc1ccc(NC(=O)C(=O)NCC2CCCN2S(=O)(=O)c2cc(C)ccc2C)cc1 (stereo not given) |  |  | 6.51 µM [rising, single point]
3 | Cc1ccc(S(=O)(=O)NC(C)(C)CN2CCc3ccccc3C2)cc1 | 21.8% | 0.00411 µM [rising, full curve, poor fit] | 0.00517 µM [rising, full curve, poor fit]
4 | Cc1ccc(-n2ncc3c(NCc4cccnc4)ncnc32)c(C)c1 | -35.8% | 29.1 µM [falling, single point] | 16.4 µM [falling, partial curve]
5 | CNC(=O)C(=O)NCCN1CCN(S(=O)(=O)c2ccc3ccccc3c2)CC1 |  | 29.1 µM [rising, single point] | 
6 | NC(=O)C1CCCN(S(=O)(=O)c2ccccc2)C1 (stereo not given) | -7.87% | 3.66 µM [falling, full curve] | 
7 | O=C(CC1CCCCC1)NCCCN1CCOCC1 | 4.32% | 0.517 µM [rising, full curve] | 
8 | CC(C(=O)Nc1cccc([N+](=O)[O-])c1)N1C(=O)NC2(CCCC2)C1=O (stereo not given) | 30.3% | 0.112 µM [rising, full curve, poor fit] | 29.1 µM [rising, single point]
9 | CN(C)CCNC(=O)c1ccccc1-c1cc2ccccc2c(=O)o1 | 18.9% |  | 
10 | CCc1cccc(C)c1NC(=O)CSc1nc2ccncc2[nH]1 | -6.49% | 8.2 µM [falling, partial curve, poor fit] | 
11 | O=C(c1ccc(CSc2nc3ccncc3[nH]2)cc1)N1CCN(c2cccc(Cl)c2)CC1 | -64.8% | 14.6 µM [falling, partial curve] | 13 µM [falling, partial curve]
12 | CC(C)C(=O)Nc1nc2cc3c(cc2s1)OCCO3 |  | 3.66 µM [rising, partial curve] | 
13 | O=C(NC(=S)NNC(=O)c1cc2ccccc2cc1O)c1ccco1 | 5.57% |  | 0.164 µM [falling, full curve, poor fit]
14 | O=C1Nc2cc(C(=O)N3CCOCC3)ccc2S/C1=C\c1ccccc1 | -6.13% | 29.1 µM [falling, single point] | 
15 | COc1cc(OC)cc(C(=O)NNC(=O)C2CSC3(C)CCC(=O)N23)c1 (stereo not given) | -0.423% | 3.26 µM [falling, partial curve, poor fit] | 
16 | O=C1c2ccccc2C(=O)N1Cc1nc2ccccc2c(=O)n1CCCN1CCOCC1 |  | 6.51 µM [rising, single point] | 
17 | COc1cc(-c2noc(C)c2/C=C/c2ccc(N)cc2)cc(OC)c1OC | -2.27% |  | 
18 | COc1ccc(N2C(=NC(=O)C3CCCCC3)SC3CS(=O)(=O)CC32)c(OC)c1 (stereo not given) | -18.9% |  | 
19 | c1ccc(-c2noc(-c3ccno3)n2)nc1 | -13.6% | 1.64 µM [falling, partial curve, poor fit] | 
20 | Cc1c(Br)c(O)c(Br)c2sc(=O)oc12 | -44.2% | 23.1 µM [falling, partial curve, poor fit] | 29.1 µM [falling, single point]

Row | SMILES | cell number change | AC50 [1] | AC50 [2]
21 | CCn1c(SCC(=O)Nc2ccc(C)cc2)nnc1-c1cnccn1 | 32.5% | 29.1 µM [rising, single point] | 1.46 µM [rising, full curve, poor fit]
22 | O=C(O)CN1C(=O)C2C3C=CC(C3)C2C1=O (stereo not given) | -165% | 23.1 µM [falling, partial curve] | 25.9 µM [falling, partial curve]
23 | O=C(O)c1cccc(NCc2cccnc2)c1 | -80.2% | 16.4 µM [falling, partial curve] | 16.4 µM [falling, partial curve]
24 | COc1ccc(NC(=O)c2nn(C34CC5CC(CC(C5)C3)C4)cc2[N+](=O)[O-])cc1 | -0.879% | 0.058 µM [falling, partial curve] | 
25 | N#Cc1ccccc1S(=O)(=O)N1CCN(C(=O)CN2C(=O)NC3(CCCC3)C2=O)CC1 | 30.6% |  | 2.91 µM [rising, single point]
26 | O=c1[nH]c2cc(Cl)ccc2n(CCNc2ncc(C(F)(F)F)cc2Cl)c1=O | 32.1% | 18.4 µM [rising, single point] | 32.6 µM [rising, single point]
27 | CCCn1c2ccccc2c2cnn(CC(=O)NCCN(CC)CC)c(=O)c21 | -22.9% | 29.1 µM [falling, single point] | 0.164 µM [falling, full curve, poor fit]
28 | COc1cccc(NC(=O)CSc2nc3ccccc3c(=O)n2C)c1 | -47.8% |  | 32.6 µM [falling, single point]
29 | CCOC(=O)N1CCC(NC(=O)CS(=O)Cc2nc(-c3ccc(C)cc3)oc2C)CC1 (stereo not given) | -15.1% | 5.8 µM [falling, single point] | 
30 | CCOC(=O)N1CCC(NC(=O)Cc2cn(C)c3ccccc23)CC1 | -60.4% | 0.366 µM [falling, full curve, poor fit] | 0.0206 µM [falling, full curve]
31 | CNS(=O)(=O)c1cccc(C(=O)OCC(=O)c2cc(C)n(-c3ccc4c(c3)OCO4)c2C)c1 | 3.32% | 6.51 µM [falling, single point] | 
32 | O=C(O)CCn1c(C2CCCCC2)nc2ccccc21 | -15% | 1.84 µM [falling, full curve, poor fit] | 
33 | CCOc1ccc(C(=O)Nc2ccc(C(=O)N3CCOCC3)cc2)c(OCC)c1 |  | 0.0731 µM [falling, full curve, poor fit] | 
34 | O=C(COc1ccc(F)cc1Cl)Nc1ccc(N2CCOCC2)cc1N1CCOCC1 |  |  | 6.51 µM [falling, single point]
35 | CCCP(=O)(CC(=O)N(CC)CC)c1ccccc1 (stereo not given) | -1.65% | 0.0326 µM [falling, full curve, poor fit] | 
36 | COCCn1c(-c2ccc(Br)cc2)csc1=Nc1cccnc1 | 14.2% |  | 
37 | CCOC(=O)C1Cc2c([nH]c3ccccc23)CN1 (stereo not given) | 16.1% | 5.8 µM [falling, single point] | 
38 | O=C(Oc1ccc(N(Cc2cccs2)C2=NS(=O)(=O)c3ccccc32)cc1)c1ccccc1F | 6.96% | 6.51 µM [rising, single point] | 
39 | O=C(CC1C(=O)NCCN1Cc1c(F)cccc1Cl)NCCCn1cccn1 (stereo not given) | 6.06% |  | 
40 | COc1cc(OC)cc(-c2sc3ccc(OC)cc3c2C#CCCO)c1 | 8.54% | 0.00461 µM [rising, full curve, poor fit] | 

2 records picked at random from those above, as already listed:
Row | SMILES | cell number change | AC50 [1] | AC50 [2]
26 | O=c1[nH]c2cc(Cl)ccc2n(CCNc2ncc(C(F)(F)F)cc2Cl)c1=O | 32.1% | 18.4 µM [rising, single point] | 32.6 µM [rising, single point]
32 | O=C(O)CCn1c(C2CCCCC2)nc2ccccc21 | -15% | 1.84 µM [falling, full curve, poor fit] | 

The list goes on:

Row | SMILES | cell number change | AC50 [1] | AC50 [2]
41 | COc1ccc(CNC(=S)Nc2cc(OC)ccc2OC)cc1 | 21.2% | 16.4 µM [rising, single point] | 
42 | Cc1ccc(-c2cnc(-c3ccccc3C(=O)O)o2)cc1 | 27.9% |  | 
43 | CC(=O)NC(Cc1cc(C)ccc1C)C(=O)N1CCN(C(=O)c2ccc([N+](=O)[O-])cc2)CC1 (stereo not given) |  | 5.8 µM [rising, single point] | 
44 | c1cc(CSc2nnc(-c3ccc4c(c3)OCO4)o2)ccn1 | 8.61% |  | 
45 | CN(C)C/C(Cl)=C(\Cl)c1ccccc1 | 1.84% |  | 
46 | CCn1c(SCC(=O)Nc2cccc(O)c2)nc2c1c(=O)n(C)c(=O)n2C | 59.6% | 0.82 µM [falling, full curve] | 18.4 µM [rising, single point]
47 | Cc1ccc(NC(=O)Cc2cc(C(=O)O)c3ccccc3n2)c(C)c1 | -52.5% | 29.1 µM [falling, single point] | 29.1 µM [falling, single point]
48 | Nc1cc2ccccc2oc1=O | -6.45% | 6.51 µM [falling, single point] | 0.517 µM [falling, single point]
49 | COc1ccc(S(=O)(=O)/N=C2\C=C(NS(=O)(=O)c3ccccc3)C(=O)c3ccccc32)cc1 | -7.14% |  | 
50 | COc1ccc(NS(=O)(=O)c2cc(NC(=O)c3cnc(C)cn3)ccc2N2CCCCC2)cc1 | -27.2% | 20.6 µM [falling, single point] | 4.11 µM [rising, single point]
51 | O=C(NCCN1CCOCC1)c1cnn2c(-c3ccccc3)cc(-c3ccccc3)nc12 | -34.7% |  | 
52 | O=C(COc1ccc(S(=O)(=O)NC2CCCCC2)cc1)NCC1CCCO1 (stereo not given) | 4.06% | 16.4 µM [rising, single point] | 
53 | O=C(O)/C=C/c1cn(-c2ccccc2)nc1-c1ccccc1 | 27.5% | 16.4 µM [rising, single point] | 
54 | O=C(c1ccco1)N1CCCC(N2CCN(c3ccccc3F)CC2)C1 (stereo not given) |  | 4.61 µM [rising, partial curve, poor fit] | 
55 | C/C(Cn1cnc([N+](=O)[O-])n1)=N/NC(=O)COc1c(Cl)cc(Cl)cc1Cl | 13.7% |  | 
56 | O=C(CNC(=O)c1cccc(S(=O)(=O)N2CCc3ccccc32)c1)Nc1ccc(F)c(F)c1F | 20.1% |  | 0.58 µM [rising, full curve, poor fit]
57 | CCOC(=O)c1c(C)c(C(=O)N2CCCCCC2)c(C)n1CC | -48.7% | 5.8 µM [falling, partial curve] | 32.6 µM [falling, single point]
58 | CCN(CC)S(=O)(=O)c1ccc(NC(=O)CCC2CCCCC2)cc1 | -8.52% | 29.1 µM [falling, single point] | 
59 | CC1CCN(c2c(NCC3CCC(C(=O)N4CCc5ccccc5C4)CC3)c(=O)c2=O)CC1 (stereo not given) | 12.8% | 23.1 µM [falling, partial curve, poor fit] | 
